Data published in US10188659B2, “IGF-1R signaling pathway inhibitors useful in the treatment of neurodegenerative diseases” (YISSUM RESEARCH DEVELOPMENT COMPANY OF THE HEBREW …, priority 2013, dated 2019).

Assays:
[1] = test system: wild-type worms (strain N2); assay: Lifespan analysis, wild-type worms; assay type: in vivo, Caenorhabditis elegans; details: strain N2, daily treatment
[2] = test system: CF512 worms; assay: Lifespan analysis, CF512 worms; assay type: in vivo, Caenorhabditis elegans; details: 600 μM

Oc1cc(CNC(=S)/C=C/c2ccc(O)c(O)c2Br)cc(O)c1O [Compound 39]
lifespan [1]: indistinguishable from that of their untreated counterparts; also recorded: not affected | lifespan [2]: no effect on lifespan; also recorded: indistinguishable lifespans

Entries after “also recorded” stand apart in the source; their conditions may differ.
